Consider one molecule from patent US20040214763A1 (AVENTIS PHARMA S A, published 2004).

Protein sequences, listed by entry. Tags and fused reporters are not part of them. Residues count along the entry.
UniProt O60260, residues 135-290: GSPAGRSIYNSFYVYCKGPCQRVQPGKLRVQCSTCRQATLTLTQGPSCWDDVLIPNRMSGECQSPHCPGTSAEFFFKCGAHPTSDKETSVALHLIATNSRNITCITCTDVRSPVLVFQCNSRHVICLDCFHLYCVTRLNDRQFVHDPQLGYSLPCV

No constants are given. Whether binding was seen depends on the method and setting. Some entries that bind do so weakly or less than the wild type. Tags and fused reporters may be left off the sequences shown.

For this experiment, the target named is fusion protein between the central portion of parkin (amino acids 135-290) and the bacterial repressor LexA, expressed from pLex9-Parkin (135-290) (UniProt O60260). The experiment can be described thus: yeast two-hybrid, b-Gal activity assay in strain L40.

B1: p38 protein (product of the human gene JTV1) fused to the transactivating domain of GAL4, from library plasmid pGAD-HeLa7 (protein, not shown: large carriers)
chain: MPMYQVKPYHGGGAPLRVELPTCMYRLPNVHGRSYGPAPGAGHVQEESNLSLQALESRQDDILKRLYELKAAVDGLSKMIQTPDADLDVTNIIQADEPTTLTTNALDLNSVLGKDYGALKDIVINANPASPPLSLLVLHRLLCEHFRVLSTVHTHSSVKSVPENLLKCFGEQNKKQPRQDYQLGFTLIWKNVPKTQMKFSIQTMCPIEGEGNIARFLFSLFGQKHNAVNATLIDSWVDIAIFQLKEGSSKEKAAVFRSMNSALGKSPWLAGNELTVADVVLWSVLQQIGGCSVTVPANVQRWMRSCENLAPFNTALKLLK
Turning to B1, the binding result is “binds”.
